Assay results as given in PubChem BioAssay AID493014 (National Center for Advancing Translational Sciences (NCATS), 2011).
Some of the results follow. These are further read-outs of the screen, such as a control signal, another cell line or another target. No call is given for them. Most of these compounds were active or inconclusive in the main read-out, so they are no random draw. Potencies come from curve fits of mixed quality, noted in brackets.

Experiment: qHTS Assay to Find Inhibitors of Chronic Active B-Cell Receptor Signaling
Settings: ABC-DLBCL IkBa-CBG/CBR reporter, luminescence ratio (green luciferase fused to IkBa over red control in TMD8 lymphoma cells), 4 h
How it was run: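 TMD8 ABC-DLBCL cells carrying doxycycline-inducible green luciferase fused to IkappaBalpha plus unfused red luciferase were exposed to compounds (up to 46 uM) for 4 hrs at 37C. Activity came from the overlap-corrected green/red luminescence ratio.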

[1] = measured here: CBR red luminescence, cell number
[2] = measured here: IkBa-CBG green luminescence

Row | SMILES | AC50 [1] | AC50 [2]
1 | COCc1cc(C)nc2sc(C(=O)OC)c(N)c12 | 5.17 µM [falling, partial curve, poor fit] | –
2 | O=C1CCCCC1Sc1nnc(Nc2ccccc2)s1 (stereo not drawn) | 7.08 µM [falling, partial curve] | –
3 | CNc1nc(OCCNC(=O)Nc2ccccc2)nc(N2CCOCC2)n1 | 23.1 µM [rising, partial curve] | –
4 | Cc1cccc(N2CCN(C3=NC(=O)/C(=C\c4cn[nH]c4-c4ccccc4)S3)CC2)c1 | 0.116 µM [rising, full curve, poor fit] | –
5 | COc1cc(/C=C(\C#N)C(=O)NCC2CCCO2)cc(OC)c1OC (stereo not drawn) | 22.4 µM [falling, single point] | –
6 | Cc1cc(C)n(S(=O)(=O)c2ccc(C(C)(C)C)cc2)n1 | 29.1 µM [rising, single point] | –
7 | COc1ccc(C(=O)O/N=C(\N)Cc2ccc([N+](=O)[O-])cc2)c(OC)c1 | 4.47 µM [rising, partial curve] | –
8 | O=C(c1ccc(C(F)(F)F)cc1)C1CCCN(C(=O)CCc2cnccn2)C1 (stereo not drawn) | 5.62 µM [rising, single point] | –
9 | COc1ccc(C(=O)N(CN2CCCC2=O)c2nccs2)cc1OC | 3.16 µM [falling, full curve, poor fit] | –
10 | COc1cc(NC(=O)C2CC(=O)NC3=C2C(=O)CCC3)c(OC)cc1Cl (stereo not drawn) | 22.4 µM [rising, single point] | –
11 | CCN(CC)S(=O)(=O)c1cc(NC(=O)COC(=O)c2c(C)noc2C)ccc1C | 6.51 µM [falling, partial curve] | –
12 | O=C(NCCC1=CCCCC1)c1ccc2c(=O)n3nc(Nc4ccccc4)sc3nc2c1 | 10 µM [falling, partial curve] | –
13 | CCN(CCCNC(=O)CN1C(=O)COc2ccccc21)c1cccc(C)c1 | 6.51 µM [rising, partial curve, poor fit] | –
14 | Cc1ccc2nc(-c3ccc(NS(=O)(=O)c4ccc(F)c(F)c4)cc3)sc2c1 | 16.4 µM [falling, single point] | –
15 | CC(C)[C@H](NC(=O)NCc1ccco1)C(=O)O | 17.8 µM [falling, single point] | –
16 | Cc1cc(C)cc(-n2c(N)c(C(=O)Nc3c(C)n(C)n(-c4ccccc4)c3=O)c3nc4ccccc4nc32)c1 | 29.1 µM [falling, single point] | –
17 | CCSC1=C(C#N)C(c2cccc(OC)c2)CC(=O)N1 (stereo not drawn) | 5.8 µM [falling, single point] | –
18 | Cc1ccc(NC(=O)c2ccc(OC(=O)CCN3C(=O)c4ccccc4C3=O)cc2)cc1 | 14.6 µM [falling, partial curve, poor fit] | –
19 | CC1(C)CC(=O)C2=C(C1)Oc1ncn3nc(-c4cccnc4)nc3c1C2c1ccccc1 (stereo not drawn) | 31.6 µM [rising, partial curve, poor fit] | –
20 | N/C(=N\OC(=O)c1ccc(F)cc1)c1cccc([N+](=O)[O-])c1 | 0.355 µM [rising, full curve, poor fit] | –
21 | O=C(CSc1n[nH]c(=O)n1C1CC1)Nc1ccc(F)c(Cl)c1 | 18.4 µM [falling, single point] | –

Row | SMILES | AC50 [1] | AC50 [2]
22 | CN(C)c1nc(=Nc2cccc(Cl)c2)ss1 | 3.98 µM [falling, full curve, poor fit] | 1.12 µM [falling, full curve]
23 | CCOc1ccc(C2=NNC(c3cccs3)=Nc3ccc(OC)cc32)cc1 | 29.1 µM [falling, single point] | –
24 | COc1cccc(NC(=O)C2CCN(c3nnc(C)c4c(C)n(-c5ccccc5)nc34)CC2)c1 | 22.4 µM [falling, single point] | –
25 | CN(CC(=O)Nc1ccc(F)c(F)c1F)C(=O)CC1CCCCC1 | 25.9 µM [rising, single point] | –
26 | COc1cccc(C(c2c(NC(=O)c3ccco3)sc(C)c2C)N2CCOCC2)c1 (stereo not drawn) | 20.6 µM [falling, single point] | –
27 | Cn1c(=O)n(CCc2ccccc2)c(=O)c2c1nc1n2CCN1Cc1ccco1 | 11.2 µM [falling, partial curve] | –
28 | Cc1cc(C)nc(-n2nc(C)cc2NC(=O)c2ccc(S(=O)(=O)N3CCOCC3)cc2)n1 | 3.16 µM [falling, partial curve, poor fit] | –
29 | O=C(CSc1ncn[nH]1)c1cccc([N+](=O)[O-])c1 | – | 20.6 µM [falling, single point]
30 | Cc1ccc(NC(=O)NC2CCCc3ccccc32)cc1 (stereo not drawn) | 1 µM [falling, full curve, poor fit] | –
31 | O=C(CCCOc1ccc(Cl)cc1Cl)NCC1CCCO1 (stereo not drawn) | 29.1 µM [rising, single point] | –
32 | COc1ccccc1N1CCN(C(=O)Nc2ccc([N+](=O)[O-])cc2)CC1 | 0.0651 µM [rising, full curve, poor fit] | –
33 | COC(=O)c1sccc1NC(=O)COc1ccccc1Cl | 6.51 µM [falling, partial curve] | –
34 | O=C(O)Cc1nn(Cc2ccc(Cl)cc2)c(=O)c2ccccc12 | 11.2 µM [falling, partial curve] | –
35 | CCOc1ccccc1N(CC(=O)Nc1ccccc1C(=O)N1CCCC1)S(C)(=O)=O | 5.62 µM [falling, single point] | –
36 | C=CCN(C(=O)COC(=O)c1cc[n+]([O-])cc1)c1nc(-c2ccccc2)cs1 | 2.59 µM [rising, partial curve, poor fit] | –
37 | COc1ccccc1NS(=O)(=O)c1cccc(C(=O)N/N=C/c2ccc([N+](=O)[O-])o2)c1 | 16.4 µM [falling, partial curve] | –
38 | COc1ccc(C2C(C#N)=C(N)N(Nc3ccccc3)C3=C2C(=O)CC(C)(C)C3)cc1C (stereo not drawn) | 11.2 µM [falling, partial curve] | –
39 | O=c1c2c(nc3c(-c4ccccc4)c[nH]n13)CCC2 | 12.6 µM [falling, partial curve] | –
40 | Cc1ccccc1NC(=O)Nc1nc2ccc(S(C)(=O)=O)cc2s1 | 2.59 µM [falling, full curve] | –
41 | CC1Oc2ccccc2C=C1/C=N\NC(=O)c1cccnc1 (stereo not drawn) | 35.5 µM [falling, single point] | –
42 | CCN(CC)S(=O)(=O)c1ccc(-c2csc(C)n2)s1 | 7.08 µM [rising, full curve, poor fit] | –

Reprinted at random: two entries already listed, in no set order.
Row | SMILES | AC50 [1] | AC50 [2]
17 | CCSC1=C(C#N)C(c2cccc(OC)c2)CC(=O)N1 (stereo not drawn) | 5.8 µM [falling, single point] | –
14 | Cc1ccc2nc(-c3ccc(NS(=O)(=O)c4ccc(F)c(F)c4)cc3)sc2c1 | 16.4 µM [falling, single point] | –
